Test results taken from publication PMC8882189.
The exact form of at least one protein or probe is not confirmed. A weaker result is weaker than the reference pair of the same experiment. At least one verdict rests on a figure or table, not on a statement of the authors.

System: Rad51
Test: EMSA
Conditions: EMSA: 1 ng probe, 1 ug poly dG/dC, 120 ng protein, 2 ul of 5x buffer (10 mM HEPES pH 7.5, 10 mM KCl, 10 mM MgCl2, 1 mM DTT, 1 mM EDTA, 10% glycerol), recombinant protein, label: 5'-biotin, single-stranded DNA

AAATCAATCTAAAGTATATATGAGTAAACTTGGTCTGACAGTTACCAATGCTTAATCAGTGAGGCACCTATCTCAGCGATCTGTCTATTT [ssDNA EMSA probe]
binding result (+ Nanog C terminus (inhibitor)): binds more weakly | binding result (+ Nanog CD2 (strongest repression of the C subregions)): binds more weakly | binding result (+ Nanog DB homeodomain (no repressive effect)): binds | binding result (+ Nanog N terminus (no repressive effect)): binds | binding result (+ full-length Nanog (inhibitor)): binds more weakly | binding result (no Nanog, 10 mM MgCl2 in reaction buffer as printed, no ATP listed): binds
